Measurements as given in PMC7055097.
No constants are given. Whether binding was seen depends on the method and setting. In cells and extracts the contact can be indirect. Some binding calls cover weakened binding; strength is not graded here.

T1: SMAD Family Member 4 (human (endogenous in HCT116 and LoVo)), Q13485
T1 chain: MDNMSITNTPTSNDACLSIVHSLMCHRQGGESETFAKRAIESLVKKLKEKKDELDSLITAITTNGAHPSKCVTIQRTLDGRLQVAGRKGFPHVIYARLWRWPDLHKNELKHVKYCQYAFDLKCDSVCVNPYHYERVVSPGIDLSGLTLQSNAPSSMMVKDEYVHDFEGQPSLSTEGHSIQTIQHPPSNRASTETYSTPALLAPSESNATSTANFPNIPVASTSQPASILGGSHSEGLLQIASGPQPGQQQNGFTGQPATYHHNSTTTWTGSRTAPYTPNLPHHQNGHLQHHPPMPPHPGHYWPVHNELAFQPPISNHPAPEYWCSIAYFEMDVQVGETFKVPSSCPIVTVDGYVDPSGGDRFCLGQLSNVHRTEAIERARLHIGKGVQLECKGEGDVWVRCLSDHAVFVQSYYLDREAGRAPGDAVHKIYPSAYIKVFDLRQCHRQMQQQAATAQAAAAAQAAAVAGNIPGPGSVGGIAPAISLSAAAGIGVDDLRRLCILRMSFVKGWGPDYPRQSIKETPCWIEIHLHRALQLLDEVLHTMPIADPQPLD


Tests used:
[1] = target: SMAD Family Member 2 (human (endogenous in HCT116 and LoVo)), Q15796; experiment: co-IP; co-immunoprecipitation of SMAD2 and SMAD4, both directions, in HCT116 cells transfected with MIR22HG siRNA or control and in LoVo cells infected with lentivirus expressing MIR22HG or control; conditions: remark: other sources report otherwise
[2] = target: T1, SMAD Family Member 4 (human (endogenous …)); experiment: as above; conditions: remark: other sources report otherwise

| binding [1] | binding [2] | Binder |
| --- | --- | --- |
| binds |  | SMAD Family Member 4, Q13485 1-552 (protein) MDNMSITNTPTSNDACLSIVHSLMCHRQGGESETFAKRAIESLVKKLKEKKDELDSLITAITTNGAHPSKCVTIQRTLDGRLQVAGRKGFPHVIYARLWRWPDLHKNELKHVKYCQYAFDLKCDSVCVNPYHYERVVSPGIDLSGLTLQSNAPSSMMVKDEYVHDFEGQPSLSTEGHSIQTIQHPPSNRASTETYSTPALLAPSESNATSTANFPNIPVASTSQPASILGGSHSEGLLQIASGPQPGQQQNGFTGQPATYHHNSTTTWTGSRTAPYTPNLPHHQNGHLQHHPPMPPHPGHYWPVHNELAFQPPISNHPAPEYWCSIAYFEMDVQVGETFKVPSSCPIVTVDGYVDPSGGDRFCLGQLSNVHRTEAIERARLHIGKGVQLECKGEGDVWVRCLSDHAVFVQSYYLDREAGRAPGDAVHKIYPSAYIKVFDLRQCHRQMQQQAATAQAAAAAQAAAVAGNIPGPGSVGGIAPAISLSAAAGIGVDDLRRLCILRMSFVKGWGPDYPRQSIKETPCWIEIHLHRALQLLDEVLHTMPIADPQPLD |
|  | binds | SMAD Family Member 2, Q15796 1-467 (protein) MSSILPFTPPVVKRLLGWKKSAGGSGGAGGGEQNGQEEKWCEKAVKSLVKKLKKTGRLDELEKAITTQNCNTKCVTIPSTCSEIWGLSTPNTIDQWDTTGLYSFSEQTRSLDGRLQVSHRKGLPHVIYCRLWRWPDLHSHHELKAIENCEYAFNLKKDEVCVNPYHYQRVETPVLPPVLVPRHTEILTELPPLDDYTHSIPENTNFPAGIEPQSNYIPETPPPGYISEDGETSDQQLNQSMDTGSPAELSPTTLSPVNHSLDLQPVTYSEPAFWCSIAYYELNQRVGETFHASQPSLTVDGFTDPSNSERFCLGLLSNVNRNATVEMTRRHIGRGVRLYYIGGEVFAECLSDSAIFVQSPNCNQRYGWHPATVCKIPPGCNLKIFNNQEFAALLAQSVNQGFEAVYQLTRMCTIRMSFVKGWGAEYRRQTVTSTPCWIELHLNGPLQWLDKVLTQMGSPSVRCSSMS |
